The assay deals with T1, YL1 (YELLOW LEAF 1), full-length, in pGBKT7 (rice (Oryza sativa)) (UniProt Q0E3V2).
T1 sequence: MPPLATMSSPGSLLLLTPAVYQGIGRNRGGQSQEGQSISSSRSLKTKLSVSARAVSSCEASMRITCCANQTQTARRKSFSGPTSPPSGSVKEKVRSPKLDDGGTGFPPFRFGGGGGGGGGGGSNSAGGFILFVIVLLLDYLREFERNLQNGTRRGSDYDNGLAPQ
Briefly: two-hybrid; Matchmaker Gold system (Clontech); YL1 in pGBKT7 (bait), subunits in pGADT7 (prey); S. cerevisiae AH109; growth on SD/-Ade/-His/-Leu/-Trp medium containing X-α-gal.

These are yes or no findings as the source states them, for the method shown.

With “Cyt f of the Cyt b6/f complex, in pGADT7”, the binding entry was “no binding”.

The values above are taken from PMC5009372.
